Amino acid sequences for entries named in this document (tags omitted). A change or cut given only in a name is not applied to a line headed by its entry.
UniProt Q8I1R7: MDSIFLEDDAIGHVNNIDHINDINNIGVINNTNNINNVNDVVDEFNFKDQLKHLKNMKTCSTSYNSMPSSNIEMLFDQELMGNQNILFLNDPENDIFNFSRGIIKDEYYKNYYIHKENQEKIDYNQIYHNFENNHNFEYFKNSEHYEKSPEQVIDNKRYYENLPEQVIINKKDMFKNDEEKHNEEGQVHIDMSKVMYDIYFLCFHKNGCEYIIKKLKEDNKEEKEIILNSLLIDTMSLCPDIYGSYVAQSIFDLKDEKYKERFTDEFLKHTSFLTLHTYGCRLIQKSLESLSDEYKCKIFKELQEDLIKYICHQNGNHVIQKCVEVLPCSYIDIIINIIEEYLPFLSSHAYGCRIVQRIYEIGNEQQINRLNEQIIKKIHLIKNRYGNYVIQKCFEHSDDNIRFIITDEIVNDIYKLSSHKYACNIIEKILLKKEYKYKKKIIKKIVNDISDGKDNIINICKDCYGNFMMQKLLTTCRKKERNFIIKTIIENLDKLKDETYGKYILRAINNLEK
UniProt Q8I3L1: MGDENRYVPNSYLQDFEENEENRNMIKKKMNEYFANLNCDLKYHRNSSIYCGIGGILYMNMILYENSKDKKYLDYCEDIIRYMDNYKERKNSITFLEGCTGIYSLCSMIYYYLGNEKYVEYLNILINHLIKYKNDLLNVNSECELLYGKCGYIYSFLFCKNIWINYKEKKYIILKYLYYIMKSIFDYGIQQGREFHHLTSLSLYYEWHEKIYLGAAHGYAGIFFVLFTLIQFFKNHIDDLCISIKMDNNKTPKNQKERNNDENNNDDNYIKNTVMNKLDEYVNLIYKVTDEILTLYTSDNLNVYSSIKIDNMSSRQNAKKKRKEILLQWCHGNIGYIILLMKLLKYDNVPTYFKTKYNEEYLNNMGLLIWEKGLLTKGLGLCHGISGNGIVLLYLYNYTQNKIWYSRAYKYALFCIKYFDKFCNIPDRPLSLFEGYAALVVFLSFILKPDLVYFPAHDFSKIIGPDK
UniProt Q8IK89: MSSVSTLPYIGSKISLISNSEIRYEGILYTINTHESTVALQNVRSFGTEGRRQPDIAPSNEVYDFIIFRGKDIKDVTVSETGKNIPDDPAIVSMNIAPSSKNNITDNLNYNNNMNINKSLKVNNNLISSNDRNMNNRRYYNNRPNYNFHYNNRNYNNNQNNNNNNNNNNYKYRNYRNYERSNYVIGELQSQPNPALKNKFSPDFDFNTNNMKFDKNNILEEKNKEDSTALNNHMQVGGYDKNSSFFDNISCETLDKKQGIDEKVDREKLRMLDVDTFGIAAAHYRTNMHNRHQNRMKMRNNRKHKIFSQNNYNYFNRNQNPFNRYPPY
UniProt Q8I5H4: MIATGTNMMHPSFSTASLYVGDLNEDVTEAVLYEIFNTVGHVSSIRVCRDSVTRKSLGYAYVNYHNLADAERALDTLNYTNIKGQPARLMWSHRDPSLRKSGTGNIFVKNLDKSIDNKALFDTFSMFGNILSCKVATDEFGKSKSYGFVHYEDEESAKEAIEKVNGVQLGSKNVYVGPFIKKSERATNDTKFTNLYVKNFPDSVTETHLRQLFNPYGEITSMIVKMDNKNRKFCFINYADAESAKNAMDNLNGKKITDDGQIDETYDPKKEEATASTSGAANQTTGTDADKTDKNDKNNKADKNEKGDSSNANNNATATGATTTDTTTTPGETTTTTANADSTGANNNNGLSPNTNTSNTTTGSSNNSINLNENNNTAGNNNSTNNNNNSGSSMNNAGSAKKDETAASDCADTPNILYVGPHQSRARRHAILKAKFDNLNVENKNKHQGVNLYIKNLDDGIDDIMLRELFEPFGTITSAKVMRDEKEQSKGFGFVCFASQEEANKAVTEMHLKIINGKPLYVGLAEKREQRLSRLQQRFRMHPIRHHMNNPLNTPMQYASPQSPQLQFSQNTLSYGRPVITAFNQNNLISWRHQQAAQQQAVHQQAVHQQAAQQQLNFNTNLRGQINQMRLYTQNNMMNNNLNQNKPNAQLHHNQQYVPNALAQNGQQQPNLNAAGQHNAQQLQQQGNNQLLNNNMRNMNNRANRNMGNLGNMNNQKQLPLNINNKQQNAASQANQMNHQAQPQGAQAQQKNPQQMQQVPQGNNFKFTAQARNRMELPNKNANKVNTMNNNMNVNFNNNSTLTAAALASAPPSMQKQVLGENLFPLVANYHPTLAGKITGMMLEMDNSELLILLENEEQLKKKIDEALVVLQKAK

In PMC6122839:

Legend:
[1] = target: Pumilio-2 (Puf2) (P. falciparum (endogenous in gametocytes)) (UniProt Q8I1R7); experiment: co-IP; gametocyte lysates of WT NF54 or the 7-Helix-1-HA line, pre-cleared with 5% pre-immune sera and protein G-beads 1 h at 4°C; 5% polyclonal antisera 1 h at 4°C, protein G-beads overnight at 4°C; five washes with PBS; Western blot
[2] = target: 7-Helix-1 (P. falciparum (endogenous in NF54 gametocytes)) (UniProt Q8I3L1); experiment: as above

binding [1] | binding [2] | Substance
binds |  | 7-Helix-1-HA (from UniProt Q8I3L1)
 | binds | CITH (CAR-I/trailer hitch homolog) (from UniProt Q8IK89)
 | binds | PABP1 (polyadenylate-binding protein 1) (from UniProt Q8I5H4)

Results are given in words; binding and its absence hold for the method and conditions named. In cells and extracts the contact can be indirect. Binding calls can cover weak binding; strength is not graded here.
